Data source: PubChem BioAssay AID1259254 (NCATS, 2017)

Screen: 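Genome-wide screen for genes that prevent DNA re-replication in cancer cells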 (primary screen)
System: human HCT116 colorectal cancer cells
Knock-down reagent: single siRNA against human genes
Duration: 3 days
Read-out: 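Nuclei stained with Hoechst and imaged; cell-cycle phase assigned by DNA content; G2 share scaled per plate, non-targeting siRNA 0%, GMNN siRNA 100%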
Scale: G2 robust z-score and G2 cells, % of GMNN control: higher = more G2 cells, more excess DNA replication
Rule for the call: 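An siRNA counts as active if its G2 robust z-score lies at least 5 MADs above the screen median; here such calls match roughly 38% of GMNN control or more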
This is an unselected part of about 59,000 deposited reagents. About 1,550 of all reagents (2.6%) count as active. 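G2 share is only a proxy for re-replication; each gene was hit by three separate siRNAs, and active genes were retested.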 The numbers tell different reagents against one gene apart. Further read-outs or replicates are left out here. Not given: the amount of reagent.

FBXO34 (F-box protein 34) #1 gave G2 robust z-score 1.48; G2 cells, % of GMNN control 13.4; inactive.
Knock-down of FBXO34 (F-box protein 34) #2 came out at: G2 robust z-score 0.507; G2 cells, % of GMNN control 6.53; inactive.
After knock-down of FBXO34 (F-box protein 34) #3, the record shows G2 robust z-score 0.0899; G2 cells, % of GMNN control 3.6; inactive.
After knock-down of ATOX1 (antioxidant 1 copper chaperone) #1, the record shows G2 robust z-score 0.829; G2 cells, % of GMNN control 8.8; inactive.
After knock-down of ATOX1 (antioxidant 1 copper chaperone) #2, the record shows G2 robust z-score 1.53; G2 cells, % of GMNN control 13.7; inactive.
For ATOX1 (antioxidant 1 copper chaperone) #3, the values are G2 robust z-score -0.803; G2 cells, % of GMNN control -2.68; inactive.
Silencing of CCR8 (C-C motif chemokine receptor 8) #1 resulted in: G2 robust z-score 1.2; G2 cells, % of GMNN control 11.4; inactive.
With knock-down of CCR8 (C-C motif chemokine receptor 8) #2 the results were G2 robust z-score 3.01; G2 cells, % of GMNN control 24.1; inactive.
After knock-down of CCR8 (C-C motif chemokine receptor 8) #3 the results were G2 robust z-score -1.01; G2 cells, % of GMNN control -4.1; inactive.
With knock-down of GRIA2 (glutamate ionotropic receptor AMPA type subunit 2) #1 the results were G2 robust z-score 0.297; G2 cells, % of GMNN control 5.05; inactive.
GRIA2 (glutamate ionotropic receptor AMPA type subunit 2) #2 scored G2 robust z-score 0.118; G2 cells, % of GMNN control 3.8; inactive.
Against GRIA2 (glutamate ionotropic receptor AMPA type subunit 2) #3, the values are G2 robust z-score 0.688; G2 cells, % of GMNN control 7.81; inactive.
For DYNC1LI1 (dynein cytoplasmic 1 light intermediate chain 1) #1 the deposit lists G2 robust z-score 0.352; G2 cells, % of GMNN control 5.45; inactive.
Silencing of DYNC1LI1 (dynein cytoplasmic 1 light intermediate chain 1) #2 resulted in: G2 robust z-score -1.08; G2 cells, % of GMNN control -4.64; inactive.
DYNC1LI1 (dynein cytoplasmic 1 light intermediate chain 1) #3 gave G2 robust z-score -0.642; G2 cells, % of GMNN control -1.55; inactive.
Silencing of INO80E (INO80 complex subunit E) #1 gave: G2 robust z-score -0.675; G2 cells, % of GMNN control -1.78; inactive.
INO80E (INO80 complex subunit E) #2 showed G2 robust z-score -0.517; G2 cells, % of GMNN control -0.668; inactive.
INO80E (INO80 complex subunit E) #3 showed G2 robust z-score 1.51; G2 cells, % of GMNN control 13.6; inactive.
Against CFAP95 (cilia and flagella associated protein 95) #1, the values are G2 robust z-score 0.988; G2 cells, % of GMNN control 9.92; inactive.
Depletion of CFAP95 (cilia and flagella associated protein 95) #2 gave: G2 robust z-score -0.331; G2 cells, % of GMNN control 0.635; inactive.
CFAP95 (cilia and flagella associated protein 95) #3 showed G2 robust z-score -0.36; G2 cells, % of GMNN control 0.437; inactive.
Silencing of CCDC80 (coiled-coil domain containing 80) #1 resulted in: G2 robust z-score -0.537; G2 cells, % of GMNN control -0.814; inactive.
With knock-down of CCDC80 (coiled-coil domain containing 80) #2 the results were G2 robust z-score -0.488; G2 cells, % of GMNN control -0.469; inactive.
For CCDC80 (coiled-coil domain containing 80) #3, the entry reads G2 robust z-score -0.861; G2 cells, % of GMNN control -3.09; inactive.

Sorted by “G2 cells, % of GMNN control” (ascending): 4 of the entries above
FBXO34 (F-box protein 34) #3 — G2 robust z-score = 0.0899; G2 cells, % of GMNN control = 3.6; activity call = inactive
FBXO34 (F-box protein 34) #2 — G2 robust z-score = 0.507; G2 cells, % of GMNN control = 6.53; activity call = inactive
ATOX1 (antioxidant 1 copper chaperone) #1 — G2 robust z-score = 0.829; G2 cells, % of GMNN control = 8.8; activity call = inactive
FBXO34 (F-box protein 34) #1 — G2 robust z-score = 1.48; G2 cells, % of GMNN control = 13.4; activity call = inactive
